These results are taken from publication PMC12080386.

Where a chain is given by its changes, count along the chain named. Results are given in words; binding and its absence hold for the method and conditions named. Binding seen in cells or lysates may run through a third protein. Some entries that bind do so weakly or less than the wild type. For some of these results: Tags and fused reporters may be left off the sequences shown.

One assay deals with T1, SIRT4-HA (human) (UniProt Q9Y6E7).
T1 sequence: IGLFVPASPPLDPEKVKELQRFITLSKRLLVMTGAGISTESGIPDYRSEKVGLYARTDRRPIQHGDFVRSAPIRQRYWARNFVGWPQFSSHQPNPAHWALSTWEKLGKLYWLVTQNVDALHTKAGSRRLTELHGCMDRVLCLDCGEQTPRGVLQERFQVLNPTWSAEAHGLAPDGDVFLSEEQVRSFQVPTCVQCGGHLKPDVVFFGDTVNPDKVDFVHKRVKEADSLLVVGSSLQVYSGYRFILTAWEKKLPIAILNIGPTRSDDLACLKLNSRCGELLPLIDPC
Briefly: co-IP; 293FT cells transiently transfected with SIRT4-HA and MCCC2-Flag; anti-HA or anti-Flag M2 affinity gel, overnight at 4 °C; Western blot. (In general: A western blot detects proteins with antibodies after separation by electrophoresis.)

Assay [1] concerns the target T2, SIRT4, endogenous in Hep-12 cells (human (endogenous in Hep-12)) (UniProt Q9Y6E7).
T2 sequence: T1 sequence
Briefly: co-IP; endogenous proteins in Hep-12 cells; lysis buffer 1% NP-40, 150 mM NaCl, 5 mM EDTA, 50 mM Tris·HCl pH 7.4; antibodies against SIRT4 or MCCC2 or control IgG at 4 °C overnight, protein A/G beads; Western blot.

Assay [2] has as its target T3, MCCC2^K269R (sgRNA-resistant deacetylated mimetic mutant) (human) (UniProt Q9HCC0).
T3 sequence: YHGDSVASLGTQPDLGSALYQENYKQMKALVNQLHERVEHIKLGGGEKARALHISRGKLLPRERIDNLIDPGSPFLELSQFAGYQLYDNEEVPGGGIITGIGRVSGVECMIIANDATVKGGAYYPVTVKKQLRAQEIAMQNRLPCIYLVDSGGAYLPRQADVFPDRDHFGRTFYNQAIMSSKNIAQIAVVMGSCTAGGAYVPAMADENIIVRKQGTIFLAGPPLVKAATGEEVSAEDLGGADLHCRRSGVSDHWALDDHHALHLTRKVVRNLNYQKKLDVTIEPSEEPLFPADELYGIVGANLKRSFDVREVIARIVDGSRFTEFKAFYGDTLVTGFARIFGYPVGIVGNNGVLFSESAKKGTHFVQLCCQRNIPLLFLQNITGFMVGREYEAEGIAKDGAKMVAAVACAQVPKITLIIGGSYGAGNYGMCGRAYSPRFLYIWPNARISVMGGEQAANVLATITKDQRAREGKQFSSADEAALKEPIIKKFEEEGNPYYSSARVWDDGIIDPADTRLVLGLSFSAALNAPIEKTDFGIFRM
Put plainly: co-IP; MCCC2 immunoprecipitated from endogenous MCCC2-KO cells ectopically expressing MCCC2^WT, MCCC2^K269R or MCCC2^K269Q; Western blot with the antibody against MCCC1.

The target in assay [3] is T4, MCCC2^K269Q (sgRNA-resistant acetylated mimetic mutant) (human) (UniProt Q9HCC0).
T4 sequence: T3 sequence with R247Q
Described as above.

The target in assay [4] is T5, MCCC2^WT (sgRNA-resistant wild type MCCC2) (human) (UniProt Q9HCC0).
T5 sequence: T3 sequence with R247K
The description is as above.

In the next assay the target is T6, MCCC2-Flag (human) (UniProt Q9HCC0).
T6 sequence: T3 sequence with R247K
Briefly: co-IP; 293FT cells transiently transfected with SIRT4-HA and MCCC2-Flag; anti-HA or anti-Flag M2 affinity gel, overnight at 4 °C; Western blot.

The target of assay [5] is T7, 3-methylcrotonyl-CoA carboxylase 2 (MCCC2), endogenous in Hep-12 cells (human (endogenous in Hep-12)) (UniProt Q9HCC0).
T7 sequence: T3 sequence with R247K
Put plainly: co-IP; endogenous proteins in Hep-12 cells; lysis buffer 1% NP-40, 150 mM NaCl, 5 mM EDTA, 50 mM Tris·HCl pH 7.4; antibodies against SIRT4 or MCCC2 or control IgG at 4 °C overnight, protein A/G beads; Western blot.

B1: MCCC2-Flag (enzyme, UniProt Q9HCC0 23-563)
chain: T3 sequence with R247K
For B1, the binding result with SIRT4-HA (human) is “binds”.

B2: 3-methylcrotonyl-CoA carboxylase 2 (MCCC2), endogenous in Hep-12 cells (enzyme, UniProt Q9HCC0 23-563)
chain: T3 sequence with R247K
For the molecule B2, in assay [1], the binding entry was “binds”.

B3: MCCC1 (methylcrotonyl-CoA carboxylase subunit 1), endogenous in MCCC2-KO HCC cells (enzyme, UniProt Q96RQ3 42-725)
chain: TTATGRNITKVLIANRGEIACRVMRTAKKLGVQTVAVYSEADRNSMHVDMADEAYSIGPAPSQQSYLSMEKIIQVAKTSAAQAIHPGCGFLSENMEFAELCKQEGIIFIGPPPSAIRDMGIKSTSKSIMAAAGVPVVEGYHGEDQSDQCLKEHARRIGYPVMIKAVRGGGGKGMRIVRSEQEFQEQLESARREAKKSFNDDAMLIEKFVDTPRHVEVQVFGDHHGNAVYLFERDCSVQRRHQKIIEEAPAPGIKSEVRKKLGEAAVRAAKAVNYVGAGTVEFIMDSKHNFCFMEMNTRLQVEHPVTEMITGTDLVEWQLRIAAGEKIPLSQEEITLQGHAFEARIYAEDPSNNFMPVAGPLVHLSTPRADPSTRIETGVRQGDEVSVHYDPMIAKLVVWAADRQAALTKLRYSLRQYNIVGLHTNIDFLLNLSGHPEFEAGNVHTDFIPQHHKQLLLSRKAAAKESLCQAALGLILKEKAMTDTFTLQAHDQFSPFSSSSGRRLNISYTRNMTLKDGKNNVAIAVTYNHDGSYSMQIEDKTFQVLGNLYSEGDCTYLKCSVNGVASKAKLIILENTIYLFSKEGSIEIDIPVPKYLSSVSSQETQGGPLAPMTGTIEKVFVKAGDKVKAGDSLMVMIAMKMEHTIKSPKDGTVKKVFYREGAQANRHTPLVEFEEEESDKRESE
Take B3: the binding result in assay [2], in assay [3] and in assay [4] was “binds” throughout.

B4: SIRT4-HA (enzyme, UniProt Q9Y6E7 29-314)
chain: T1 sequence
As for B4, in the assay with MCCC2-Flag (human), the binding entry is recorded as “binds”.

B5: SIRT4, endogenous in Hep-12 cells (enzyme, UniProt Q9Y6E7 29-314)
chain: T1 sequence
As to B5, the binding result in assay [5] is listed as “binds”.
